# These are yes or no findings as the source states them, for the method shown. Binding seen in cells or lysates may run through a third protein. These calls come from enrichment with a bait or labelling near it, and not all partners need be listed.
# By UniProt entry, the sequences of proteins in these tests, tags left out.
# UniProt P08670: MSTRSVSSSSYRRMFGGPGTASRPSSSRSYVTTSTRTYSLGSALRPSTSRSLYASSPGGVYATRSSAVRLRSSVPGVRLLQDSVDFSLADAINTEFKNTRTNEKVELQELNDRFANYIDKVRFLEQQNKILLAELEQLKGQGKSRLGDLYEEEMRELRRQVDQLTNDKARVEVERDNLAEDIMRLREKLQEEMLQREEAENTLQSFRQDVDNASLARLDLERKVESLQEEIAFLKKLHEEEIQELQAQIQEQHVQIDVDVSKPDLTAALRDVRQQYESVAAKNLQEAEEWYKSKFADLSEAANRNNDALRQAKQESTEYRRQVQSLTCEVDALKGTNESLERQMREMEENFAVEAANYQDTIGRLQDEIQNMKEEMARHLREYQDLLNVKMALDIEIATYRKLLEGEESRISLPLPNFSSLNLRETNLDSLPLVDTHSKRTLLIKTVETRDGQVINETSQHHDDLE
# UniProt P35609: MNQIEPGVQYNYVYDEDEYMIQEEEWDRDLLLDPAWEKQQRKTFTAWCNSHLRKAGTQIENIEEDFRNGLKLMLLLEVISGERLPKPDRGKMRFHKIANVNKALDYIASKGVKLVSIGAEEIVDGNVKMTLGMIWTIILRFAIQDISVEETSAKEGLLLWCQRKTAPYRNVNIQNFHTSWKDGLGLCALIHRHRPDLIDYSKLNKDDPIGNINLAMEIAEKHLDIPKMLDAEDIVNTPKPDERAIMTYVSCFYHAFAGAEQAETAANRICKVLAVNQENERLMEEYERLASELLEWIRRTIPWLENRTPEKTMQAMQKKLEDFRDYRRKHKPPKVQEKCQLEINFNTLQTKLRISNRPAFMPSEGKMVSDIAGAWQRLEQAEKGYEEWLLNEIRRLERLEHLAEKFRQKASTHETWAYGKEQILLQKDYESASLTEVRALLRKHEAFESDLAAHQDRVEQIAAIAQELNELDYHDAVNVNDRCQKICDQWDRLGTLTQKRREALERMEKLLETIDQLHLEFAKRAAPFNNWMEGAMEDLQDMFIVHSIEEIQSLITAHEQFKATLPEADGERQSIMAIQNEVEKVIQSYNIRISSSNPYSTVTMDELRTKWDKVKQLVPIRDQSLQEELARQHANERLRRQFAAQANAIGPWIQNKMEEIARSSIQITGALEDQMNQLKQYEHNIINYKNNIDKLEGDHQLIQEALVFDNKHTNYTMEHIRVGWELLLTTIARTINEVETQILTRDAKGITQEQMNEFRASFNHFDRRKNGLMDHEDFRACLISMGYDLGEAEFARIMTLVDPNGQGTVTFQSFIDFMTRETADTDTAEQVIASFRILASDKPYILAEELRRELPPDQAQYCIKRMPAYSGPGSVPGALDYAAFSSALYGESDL
# T1: Annexin A1 (human (endogenous in 6-10B)) (UniProt P04083)
# T1 sequence: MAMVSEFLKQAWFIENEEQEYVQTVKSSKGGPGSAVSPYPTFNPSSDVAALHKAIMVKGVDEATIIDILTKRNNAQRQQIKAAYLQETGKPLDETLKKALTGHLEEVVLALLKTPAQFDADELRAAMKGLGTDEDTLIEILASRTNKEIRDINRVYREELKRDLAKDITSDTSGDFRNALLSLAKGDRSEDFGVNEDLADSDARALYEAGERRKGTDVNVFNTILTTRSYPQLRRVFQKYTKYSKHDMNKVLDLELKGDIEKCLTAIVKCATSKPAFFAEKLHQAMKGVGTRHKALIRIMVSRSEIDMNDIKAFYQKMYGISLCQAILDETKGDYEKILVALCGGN
# Biological target: T1, Annexin A1 (human (endogenous in 6-10B))
# Test: affinity purification with mass spectrometry; 6-10B NPC cell lysate precleared, immunoprecipitated with anti-Annexin A1 antibody overnight, Protein G agarose 4 h at 4°C, washed three times with PBS; SDS-PAGE, in-gel trypsin digestion, 2DLC-MS/MS; non-immune IgG as negative control; three replicates
row,binding,Molecule
1,binds,Vimentin (from UniProt P08670 1-466)
2,binds,α-actinin 2 (from UniProt P35609 1-894)
3,binds,"S100A9 (protein, UniProt P06702 1-114) MTCKMSQLERNIETIINTFHQYSVKLGHPDTLNQGEFKELVRKDLQNFLKKENKNEKVIEHIMEDLDTNADKQLSFEEFIMLMARLTWASHEKMHEGDEGPGHHHKPGLGEGTP"
